The target in data set [1] is T1, RNase H (Escherichia coli) (UniProt P0A7Y4).
T1 sequence (looked up, limits assumed): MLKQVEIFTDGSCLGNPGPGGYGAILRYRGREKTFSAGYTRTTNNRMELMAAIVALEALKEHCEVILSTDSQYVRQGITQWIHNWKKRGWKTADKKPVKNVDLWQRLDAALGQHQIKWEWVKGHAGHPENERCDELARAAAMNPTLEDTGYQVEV
In words: enzyme reaction in vitro. The following applies: purified recombinant protein, label: 5'-32P on target RNA.

Data set [2] deals with HeLa cell crude extract proteins (Homo sapiens). In words: EMSA. The following applies: protein in an extract, label: 5'-32P. On the technique in general: A gel shift assay detects complexes by their altered migration in electrophoresis.

A negative result means that nothing was seen under these conditions. For some of these results: Where a protein sequence is shown, tags need not be part of it. The exact form of at least one protein or probe is not confirmed. For some of these results: At least one result comes from cells or an extract, where the contact may be indirect.

As to TTTTTTTTTTTTTTTTTT [2'F-araT18/rA18], the “activity on this sequence” value in data set [1] (all 2'-deoxy-2'-fluoro-beta-D-arabinose (2'F-ANA) in test strand, 2.5 mM MgCl2, 22 C, DNA:RNA hybrid, variant of dT18/rA18) is reported as “active”. As to TTTTTTTTTTTTTTTTTT [2'F-araT18], the binding result in data set [2] (all 2'F-ANA, no appreciable interaction, synthetic backbone, variant of dT18) is given as “no binding”. Take TTTTTTTTTTTTTTTTTT [2'F-riboT18]: in data set [2] (2'-F (ribo) throughout, no appreciable interaction, synthetic backbone, variant of dT18), the binding result is “no binding”. Regarding TTTTTTTTTTTTTTTTTT [PS-dT18/rA18], the “activity on this sequence” value in data set [1] (PS throughout test strand, 2.5 mM MgCl2, 22 C, DNA:RNA hybrid, variant of dT18/rA18) was “active”. Consider TTTTTTTTTTTTTTTTTT [PS-dT18], for which the binding result in data set [2] (PS throughout, essentially all bound, 100 mM KCl, 1 mM MgCl2, 25 C, single-stranded DNA, variant of dT18) was “binds”. Consider TTTTTTTTTTTTTTTTTT [dT18/rA18], for which, in data set [1] (2.5 mM MgCl2, 22 C, DNA:RNA hybrid), the “activity on this sequence” value is “active”. TTTTTTTTTTTTTTTTTT [dT18]: in data set [2] (no appreciable interaction, single-stranded DNA), the binding result is recorded as “no binding”. Turning to “UUUUUUUUUUUUUUUUUU / AAAAAAAAAAAAAAAAAA [rU18/rA18]”, the “activity on this sequence” value in data set [1] (duplex formed, not cleaved, variant of dT18/rA18) is recorded as “not active”. On to “UUUUUUUUUUUUUUUUUU [araU18 + rA18 (no duplex)]”, for which, in data set [1] (all beta-D-arabinose in test strand, no duplex formed, variant of dT18/rA18), the “activity on this sequence” value is recorded as “not active”. Consider UUUUUUUUUUUUUUUUUU [araU18], for which the binding result in data set [2] (all beta-D-arabinose, no appreciable interaction, synthetic backbone, variant of dT18) is “no binding”.

The values are drawn from US20090105467.
